Measured values: publication PMC7819943, “Rice protein-binding microarrays: a tool to detect cis-acting elements near promoter regions in rice”
This is one part of the list.

The chains behind the UniProt entries cited, without tags or fusion partners.
UniProt Q0JBA9, entry or part of it: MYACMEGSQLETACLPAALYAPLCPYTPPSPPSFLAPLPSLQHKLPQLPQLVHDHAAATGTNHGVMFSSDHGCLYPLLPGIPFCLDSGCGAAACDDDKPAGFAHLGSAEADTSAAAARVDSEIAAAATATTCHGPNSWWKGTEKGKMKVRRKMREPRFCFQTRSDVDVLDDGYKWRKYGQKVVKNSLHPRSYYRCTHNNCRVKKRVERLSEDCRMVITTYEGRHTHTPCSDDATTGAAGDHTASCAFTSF

molecular target: OsWRKY34 (Oryza sativa, UniProt Q0JBA9 1-250); experiment: protein-binding microarray (RPBM); PBS, 2% BSA, 51.3 ng/ul salmon testes DNA, 50 uM zinc acetate, 200 nM TF, 25 C, 1 h; high values mean tight binding; details: protein: recombinant; tags: N-terminal polyhistidine and DsRed monomer fusion (pET32a); label: CyDye5-dUTP incorporated in the synthesized complementary strand; 3' TTTTT single-stranded linker to array surface; dsDNA, one strand shown
Outline: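 The binding signal is fluorescence intensity per feature, in arbitrary units, read on an Axon 4000B scanner. Polyhistidine- and DsRed-tagged transcription factors (N-terminal fusions) from E. coli BL21-CodonPlus were purified on Ni–NTA and applied at 200 nM for 1 h at 25 °C to a double-stranded, BSA-blocked custom Agilent array in buffer with 50 µM zinc acetate.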

Row | Sequence | binding signal
1 | CCCCGCCCGCACCACCGTTTCCTTTTCCAACGACTTCTTCCGGAGTCACCTAGTGCAG | 10700 fluorescence intensity (a.u.)
2 | CCGCCGCCGCCTCCTCACCCGCTGCGCGCTCGCCGCCGTGCGGAGTCACCTAGTGCAG | 8850 fluorescence intensity (a.u.)
3 | GACGATATGTAACACCCTCGTCACATTTACCATTTATACACGGAGTCACCTAGTGCAG | 8270 fluorescence intensity (a.u.)
4 | CTCGACCGCCGCTGCCTCCTCGCCGCCCTCGACCGCCGACCGGAGTCACCTAGTGCAG | 12100 fluorescence intensity (a.u.)
5 | GCAGCATCACCCGCAGCCGCCGCCGCCGCCGCCATGGACTCGGAGTCACCTAGTGCAG | 10100 fluorescence intensity (a.u.)
6 | TATATCGAAGCAAATTCCCACCATAGATTTTACCTTACCTCGGAGTCACCTAGTGCAG | 8240 fluorescence intensity (a.u.)
7 | ATCTGTTTTTTTTTTCTGAAGAGAAGCATATACTTATTTCCGGAGTCACCTAGTGCAG | 9500 fluorescence intensity (a.u.)
8 | ACCGACGAATCCCGGCACATCACCGTCACATGGCCATACCCGGAGTCACCTAGTGCAG | 10000 fluorescence intensity (a.u.)
9 | TTAGTTTGCATCATTGCAGTGCATGTACCTTCCAGAGCTACGGAGTCACCTAGTGCAG | 8600 fluorescence intensity (a.u.)
10 | ACCTAATCCCACAGCTGGTCGCGACGTGGTCTGAAAACGTCGGAGTCACCTAGTGCAG | 8320 fluorescence intensity (a.u.)
11 | TGGTGGTGGTGGGGAGCGGCCTTTATCCGTGGCGTTGGCACGGAGTCACCTAGTGCAG | 15000 fluorescence intensity (a.u.)
12 | TCAGCTCTACTACACTGCTAACCTCTCCGGTCATAAGTGCCGGAGTCACCTAGTGCAG | 10000 fluorescence intensity (a.u.)
13 | GACTCAACTTGTCCAACAATATATGGCCTTTTAAGTTTTTCGGAGTCACCTAGTGCAG | 8980 fluorescence intensity (a.u.)
14 | CCTCCCTTGTTTTCTGTACCAATACGTGATGCACCGGTCTCGGAGTCACCTAGTGCAG | 8440 fluorescence intensity (a.u.)
15 | GAGTGGGTGTGGGTTTTCTAGTGGGCAGATTTAGTTTTAACGGAGTCACCTAGTGCAG | 17200 fluorescence intensity (a.u.)
16 | ATTTCGTTTCTTTCTTTCTTTTTCTTCTTTTAAAAGGGACCGGAGTCACCTAGTGCAG | 9130 fluorescence intensity (a.u.)
17 | TTTCTTTATGTCAGTCCTCTTTTGGTAGCAATTTTACTGGCGGAGTCACCTAGTGCAG | 8980 fluorescence intensity (a.u.)
18 | AGCTAGGAAGAATCTCGCCTTTACATCGCAGTCCAATTCTCGGAGTCACCTAGTGCAG | 10500 fluorescence intensity (a.u.)
19 | TCGATATAGGTTTTGTGGTTGGAGGATATGGATCATACTCCGGAGTCACCTAGTGCAG | 8350 fluorescence intensity (a.u.)
20 | CTTTGGGTACTTTGCCGCTCGCACTTCTTTTGCACAGCTCCGGAGTCACCTAGTGCAG | 13800 fluorescence intensity (a.u.)
21 | AATGTATTTTACTCTTTTAATGCACTACTGTTTCTTTTTTCGGAGTCACCTAGTGCAG | 8480 fluorescence intensity (a.u.)
22 | AACCTACTATTAGCCCGTCCAGGTCATCACAATCTGAGCTCGGAGTCACCTAGTGCAG | 10000 fluorescence intensity (a.u.)
23 | GCTTCTGTTAACCCTTAGTATGACCTCATTGTTGTCCGTCCGGAGTCACCTAGTGCAG | 11000 fluorescence intensity (a.u.)

5 entries from above, comma-delimited:
Row,Sequence,binding signal
18,AGCTAGGAAGAATCTCGCCTTTACATCGCAGTCCAATTCTCGGAGTCACCTAGTGCAG,10500 fluorescence intensity (a.u.)
19,TCGATATAGGTTTTGTGGTTGGAGGATATGGATCATACTCCGGAGTCACCTAGTGCAG,8350 fluorescence intensity (a.u.)
20,CTTTGGGTACTTTGCCGCTCGCACTTCTTTTGCACAGCTCCGGAGTCACCTAGTGCAG,13800 fluorescence intensity (a.u.)
21,AATGTATTTTACTCTTTTAATGCACTACTGTTTCTTTTTTCGGAGTCACCTAGTGCAG,8480 fluorescence intensity (a.u.)
22,AACCTACTATTAGCCCGTCCAGGTCATCACAATCTGAGCTCGGAGTCACCTAGTGCAG,10000 fluorescence intensity (a.u.)
